According to paper doi:10.1101/404863:
No constants are given. Whether binding was seen depends on the method and setting. In cells and extracts the contact can be indirect. Some entries that bind do so weakly or less than the wild type. Blank lines part the entries; values can stand above or below the binder they belong to.

Columns and labels:
[1] = molecular target: T1, disc large (Dlg) (Drosophila (endogenous in Canton-S flies)) (UniProt P31007); test: co-IP
T1 sequence: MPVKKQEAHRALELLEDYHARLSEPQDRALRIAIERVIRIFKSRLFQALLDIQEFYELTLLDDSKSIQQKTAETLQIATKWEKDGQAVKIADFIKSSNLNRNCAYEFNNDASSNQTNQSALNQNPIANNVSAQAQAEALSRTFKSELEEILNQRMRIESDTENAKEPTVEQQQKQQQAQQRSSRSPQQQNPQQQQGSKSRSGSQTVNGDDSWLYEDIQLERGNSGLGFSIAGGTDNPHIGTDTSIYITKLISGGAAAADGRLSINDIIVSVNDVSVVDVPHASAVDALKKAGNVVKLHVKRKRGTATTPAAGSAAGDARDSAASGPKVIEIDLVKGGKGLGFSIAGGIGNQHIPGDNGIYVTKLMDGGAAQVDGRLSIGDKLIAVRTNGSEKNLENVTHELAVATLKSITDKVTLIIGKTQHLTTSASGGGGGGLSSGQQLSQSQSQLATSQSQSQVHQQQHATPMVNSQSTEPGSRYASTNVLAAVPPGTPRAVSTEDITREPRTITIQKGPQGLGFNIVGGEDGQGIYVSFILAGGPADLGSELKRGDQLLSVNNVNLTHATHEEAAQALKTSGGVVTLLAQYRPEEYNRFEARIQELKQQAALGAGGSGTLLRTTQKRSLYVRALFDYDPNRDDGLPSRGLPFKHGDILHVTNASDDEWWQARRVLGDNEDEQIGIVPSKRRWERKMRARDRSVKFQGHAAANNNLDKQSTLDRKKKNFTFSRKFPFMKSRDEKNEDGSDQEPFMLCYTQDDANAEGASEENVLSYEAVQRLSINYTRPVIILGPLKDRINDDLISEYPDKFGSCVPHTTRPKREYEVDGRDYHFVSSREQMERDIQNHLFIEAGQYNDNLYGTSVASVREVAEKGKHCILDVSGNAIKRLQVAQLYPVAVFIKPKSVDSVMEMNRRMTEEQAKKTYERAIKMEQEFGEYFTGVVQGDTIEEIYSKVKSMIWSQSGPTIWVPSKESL

[2] = molecular target: T2, Drosophila Troponin I (Drosophila (endogenous in Canton-S flies)) (UniProt P36188); test: co-IP
T2 sequence: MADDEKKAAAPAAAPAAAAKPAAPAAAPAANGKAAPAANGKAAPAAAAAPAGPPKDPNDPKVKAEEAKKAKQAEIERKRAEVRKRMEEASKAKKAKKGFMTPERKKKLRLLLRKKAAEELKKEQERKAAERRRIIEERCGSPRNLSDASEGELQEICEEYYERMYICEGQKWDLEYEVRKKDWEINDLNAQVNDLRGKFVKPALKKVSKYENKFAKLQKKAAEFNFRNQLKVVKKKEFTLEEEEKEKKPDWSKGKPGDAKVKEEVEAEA

- binding [1]: binds
B1: Drosophila Troponin I (protein, UniProt P36188 1-269)
chain: T2 sequence

- binding [2]: binds
B2: disc large (Dlg) (protein, UniProt P31007 1-970)
chain: T1 sequence

- binding [2]: binds
B3: atypical PKC (aPKC) (protein, UniProt A1Z9X0 1-606)
chain: MQKMPSQILNDGSSVSLNSASMNMANTPNSITVKTAYNGQIIITTINKNISYEELCYEIRNICRFPLDQPFTIKWVDEENDPCTISTKMELDEAIRLYEMNFDSQLVIHVFPNVPQAPGLSCDGEDRSIYRRGARRWRKLYRVNGHIFQAKRFNRRAFCAYCQDRIWGLGRQGFKCIQCKLLVHKKCHKLVQKHCTDQPEPLVKERAEESSDPIPVPLPPLPYEAMSGGAEACETHDHAHIVAPPPPEDPLEPGTQRQYSLNDFELIRVIGRGSYAKVLMVELRRTRRIYAMKVIKKALVTDDEDIDWVQTEKHVFETASNHPFLVGLHSCFQTPSRLFFVIEFVRGGDLMYHMQRQRRLPEEHARFYAAEISLALNFLHEKGIIYRDLKLDNVLLDHEGHIKLTDYGMCKEGIRPGDTTSTFCGTPNYIAPEILRGEDYGFSVDWWALGVLLYEMLAGRSPFDLAGASENPDQNTEDYLFQVILEKTIRIPRSLSVRAASVLKGFLNKNPADRLGCHRESAFMDIVSHPFFKNMDWELLERKQVTPPFKPRLDSDRDLANFPPEFTGEAVQLTPDDDHVIDNIDQSEFEGFEYVNPLLMSLEDCV
